For assay [1], the target named is T1, GR (Mus musculus, UniProt P06537). The following applies: control siRNA+DEX vs input DNA.
Assay [2] addresses T1, GR. The note with it: DEX 100 nM for 18 hours, significant p and q.

By UniProt entry, the sequences of proteins in these tests, tags left out. Where a name states a change or a piece, a line headed by the entry shows the natural chain unless it says otherwise.
UniProt P06537: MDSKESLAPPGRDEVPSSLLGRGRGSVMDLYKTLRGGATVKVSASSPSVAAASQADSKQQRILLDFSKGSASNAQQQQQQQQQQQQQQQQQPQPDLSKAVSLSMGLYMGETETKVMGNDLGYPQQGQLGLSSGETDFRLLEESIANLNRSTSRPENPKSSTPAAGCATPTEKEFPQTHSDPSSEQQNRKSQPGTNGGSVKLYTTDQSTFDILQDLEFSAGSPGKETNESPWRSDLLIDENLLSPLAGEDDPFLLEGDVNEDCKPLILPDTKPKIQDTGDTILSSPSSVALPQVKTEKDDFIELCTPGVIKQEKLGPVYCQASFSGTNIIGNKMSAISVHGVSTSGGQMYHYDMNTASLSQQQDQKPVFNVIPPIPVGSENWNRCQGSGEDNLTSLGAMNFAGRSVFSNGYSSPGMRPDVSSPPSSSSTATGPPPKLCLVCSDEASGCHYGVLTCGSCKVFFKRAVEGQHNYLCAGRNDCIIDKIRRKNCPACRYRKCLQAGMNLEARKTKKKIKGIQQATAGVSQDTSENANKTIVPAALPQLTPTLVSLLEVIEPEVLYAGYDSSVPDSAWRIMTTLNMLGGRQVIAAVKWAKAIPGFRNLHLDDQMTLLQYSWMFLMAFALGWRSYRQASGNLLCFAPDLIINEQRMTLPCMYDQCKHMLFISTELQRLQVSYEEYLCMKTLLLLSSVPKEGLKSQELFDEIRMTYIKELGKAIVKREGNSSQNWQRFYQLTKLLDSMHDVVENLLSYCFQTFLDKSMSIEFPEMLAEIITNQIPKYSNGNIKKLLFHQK

As to `C[C@@H]1C[C@H]2[C@@H]3CCC4=CC(=O)C=C[C@]4(C)[C@@]3(F)[C@@H](O)C[C@]2(C)[C@@]1(O)C(=O)COP(=O)(O)O` [DEX, Dexamethasone phosphate], the “GR binding at ChIP-seq peak locations of Wnt pathway genes (Tcf7l2, Arid1b, Smad4)” value on GR [1] is “massively enhanced binding”. In addition, the “number of DEX-responsive genes (RNA-seq)” value at GR [2] came out at 231 genes.

The record behind these values is patent publication US11369609B2, “Small molecule Wnt inhibitor as treatment for dyslipidemia” (Yale University, priority 2019, dated 2022).
